Only a part is listed here, and it is no random draw.
compound: COC(=O)C#Cc1ccccc1 [methyl 3-phenylpropiolate]; experiment: log2 ratio of iodoacetamide-alkyne labeling of the cysteine site, DMSO over compound (competition); higher = stronger covalent engagement of the cysteine by the compound, active = 1 or more; details: 500 µM; treatment time 1 h; system: HEK293T cell lysate
Summary of the method: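 HEK293T lysate (2 mg/mL) was treated with DMSO or electrophile (500 µM, 1 h, ambient temperature), then iodoacetamide alkyne (1 h), clicked to sCIP-TMT reagents, pooled, trypsin-digested overnight at 37 °C, streptavidin-enriched and acid-eluted. Peptides were run on Orbitrap Eclipse LC-MS/MS with FAIMS and quantified in FragPipe. The log2 competition ratio per cysteine is mean control-channel over mean compound-channel reporter intensity. Duplicate channels and three replicates were used, and cysteines quantified in only one replicate were excluded.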

By UniProt entry, the sequences of proteins in these tests, tags left out. Where a name states a change or a piece, a line headed by the entry shows the natural chain unless it says otherwise.
UniProt Q14C86: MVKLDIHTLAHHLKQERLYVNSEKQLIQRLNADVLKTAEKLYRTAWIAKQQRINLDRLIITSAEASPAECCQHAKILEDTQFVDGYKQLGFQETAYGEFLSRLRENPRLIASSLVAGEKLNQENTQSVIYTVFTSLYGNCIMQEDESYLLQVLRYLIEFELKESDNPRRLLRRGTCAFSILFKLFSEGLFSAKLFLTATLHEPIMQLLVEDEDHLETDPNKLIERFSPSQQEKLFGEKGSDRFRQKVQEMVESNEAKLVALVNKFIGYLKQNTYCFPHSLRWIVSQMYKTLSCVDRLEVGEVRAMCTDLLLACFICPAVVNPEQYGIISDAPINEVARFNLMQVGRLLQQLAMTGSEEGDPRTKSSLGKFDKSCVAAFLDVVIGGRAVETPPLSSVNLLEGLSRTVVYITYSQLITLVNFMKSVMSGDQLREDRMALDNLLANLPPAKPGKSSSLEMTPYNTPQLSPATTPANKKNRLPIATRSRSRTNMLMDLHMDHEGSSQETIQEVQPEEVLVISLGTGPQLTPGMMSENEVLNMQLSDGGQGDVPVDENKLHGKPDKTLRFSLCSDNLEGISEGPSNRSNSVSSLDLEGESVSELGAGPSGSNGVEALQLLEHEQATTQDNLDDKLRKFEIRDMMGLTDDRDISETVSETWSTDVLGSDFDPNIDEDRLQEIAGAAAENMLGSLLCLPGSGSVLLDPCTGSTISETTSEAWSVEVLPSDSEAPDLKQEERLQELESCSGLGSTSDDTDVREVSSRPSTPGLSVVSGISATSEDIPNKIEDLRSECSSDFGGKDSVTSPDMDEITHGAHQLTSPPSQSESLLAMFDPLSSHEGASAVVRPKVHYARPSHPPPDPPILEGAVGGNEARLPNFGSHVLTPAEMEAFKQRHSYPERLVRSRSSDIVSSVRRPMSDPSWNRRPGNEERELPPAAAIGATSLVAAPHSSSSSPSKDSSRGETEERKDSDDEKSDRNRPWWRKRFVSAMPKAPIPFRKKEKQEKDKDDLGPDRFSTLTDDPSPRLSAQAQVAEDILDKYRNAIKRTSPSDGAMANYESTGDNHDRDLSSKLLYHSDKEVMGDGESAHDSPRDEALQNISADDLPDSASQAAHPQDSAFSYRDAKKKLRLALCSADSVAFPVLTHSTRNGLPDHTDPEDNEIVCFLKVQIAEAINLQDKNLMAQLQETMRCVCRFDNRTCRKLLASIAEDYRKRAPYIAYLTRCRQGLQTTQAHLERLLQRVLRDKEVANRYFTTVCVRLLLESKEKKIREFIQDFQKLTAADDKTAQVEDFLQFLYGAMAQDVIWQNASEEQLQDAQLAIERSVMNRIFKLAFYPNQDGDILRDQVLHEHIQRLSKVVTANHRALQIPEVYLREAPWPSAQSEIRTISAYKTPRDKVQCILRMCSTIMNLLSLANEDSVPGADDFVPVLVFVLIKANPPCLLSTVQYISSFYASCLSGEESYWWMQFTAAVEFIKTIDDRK
UniProt Q13620, whole entry: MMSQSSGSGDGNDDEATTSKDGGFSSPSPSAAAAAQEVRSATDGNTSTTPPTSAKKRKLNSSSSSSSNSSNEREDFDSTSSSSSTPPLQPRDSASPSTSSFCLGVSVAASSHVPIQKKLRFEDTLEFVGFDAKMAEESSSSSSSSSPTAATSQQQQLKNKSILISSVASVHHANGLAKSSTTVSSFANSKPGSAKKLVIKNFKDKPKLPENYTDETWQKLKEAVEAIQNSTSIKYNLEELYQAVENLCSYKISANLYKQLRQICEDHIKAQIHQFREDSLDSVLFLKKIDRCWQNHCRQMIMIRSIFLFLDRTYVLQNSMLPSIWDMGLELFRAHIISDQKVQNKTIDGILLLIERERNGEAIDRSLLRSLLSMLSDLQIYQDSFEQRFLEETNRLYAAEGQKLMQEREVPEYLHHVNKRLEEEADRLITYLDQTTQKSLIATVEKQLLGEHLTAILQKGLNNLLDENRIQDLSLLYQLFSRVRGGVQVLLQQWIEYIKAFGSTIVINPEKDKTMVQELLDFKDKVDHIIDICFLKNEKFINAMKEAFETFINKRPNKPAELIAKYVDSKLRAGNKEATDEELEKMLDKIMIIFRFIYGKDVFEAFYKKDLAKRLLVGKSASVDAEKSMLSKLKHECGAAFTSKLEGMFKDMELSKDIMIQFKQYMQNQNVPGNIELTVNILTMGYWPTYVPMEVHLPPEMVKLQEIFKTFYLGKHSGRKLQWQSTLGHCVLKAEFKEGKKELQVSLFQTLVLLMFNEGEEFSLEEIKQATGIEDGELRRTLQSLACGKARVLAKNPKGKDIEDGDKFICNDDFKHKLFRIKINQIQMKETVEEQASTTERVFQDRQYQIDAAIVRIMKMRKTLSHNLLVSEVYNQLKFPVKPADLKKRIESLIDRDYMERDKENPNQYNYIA
UniProt Q15004: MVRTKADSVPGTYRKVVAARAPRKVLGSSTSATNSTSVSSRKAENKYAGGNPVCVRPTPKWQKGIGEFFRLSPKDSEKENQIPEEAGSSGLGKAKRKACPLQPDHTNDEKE
UniProt Q14738, whole entry: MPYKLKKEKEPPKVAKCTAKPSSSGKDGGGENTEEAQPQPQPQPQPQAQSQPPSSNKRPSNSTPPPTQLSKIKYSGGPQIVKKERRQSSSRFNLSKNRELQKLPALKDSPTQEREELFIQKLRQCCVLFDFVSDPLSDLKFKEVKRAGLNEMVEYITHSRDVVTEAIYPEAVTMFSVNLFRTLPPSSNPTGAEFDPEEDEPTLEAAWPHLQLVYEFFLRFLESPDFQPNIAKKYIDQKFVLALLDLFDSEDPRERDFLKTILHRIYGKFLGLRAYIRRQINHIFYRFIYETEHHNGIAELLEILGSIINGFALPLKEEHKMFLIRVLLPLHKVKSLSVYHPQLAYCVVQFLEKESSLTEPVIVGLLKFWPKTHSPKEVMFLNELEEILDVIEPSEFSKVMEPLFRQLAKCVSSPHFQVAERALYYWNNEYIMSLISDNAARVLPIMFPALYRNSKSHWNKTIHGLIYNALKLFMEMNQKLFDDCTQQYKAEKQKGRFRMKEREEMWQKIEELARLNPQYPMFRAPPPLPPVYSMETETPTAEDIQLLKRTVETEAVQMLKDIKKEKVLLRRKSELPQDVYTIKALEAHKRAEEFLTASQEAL
UniProt Q14160: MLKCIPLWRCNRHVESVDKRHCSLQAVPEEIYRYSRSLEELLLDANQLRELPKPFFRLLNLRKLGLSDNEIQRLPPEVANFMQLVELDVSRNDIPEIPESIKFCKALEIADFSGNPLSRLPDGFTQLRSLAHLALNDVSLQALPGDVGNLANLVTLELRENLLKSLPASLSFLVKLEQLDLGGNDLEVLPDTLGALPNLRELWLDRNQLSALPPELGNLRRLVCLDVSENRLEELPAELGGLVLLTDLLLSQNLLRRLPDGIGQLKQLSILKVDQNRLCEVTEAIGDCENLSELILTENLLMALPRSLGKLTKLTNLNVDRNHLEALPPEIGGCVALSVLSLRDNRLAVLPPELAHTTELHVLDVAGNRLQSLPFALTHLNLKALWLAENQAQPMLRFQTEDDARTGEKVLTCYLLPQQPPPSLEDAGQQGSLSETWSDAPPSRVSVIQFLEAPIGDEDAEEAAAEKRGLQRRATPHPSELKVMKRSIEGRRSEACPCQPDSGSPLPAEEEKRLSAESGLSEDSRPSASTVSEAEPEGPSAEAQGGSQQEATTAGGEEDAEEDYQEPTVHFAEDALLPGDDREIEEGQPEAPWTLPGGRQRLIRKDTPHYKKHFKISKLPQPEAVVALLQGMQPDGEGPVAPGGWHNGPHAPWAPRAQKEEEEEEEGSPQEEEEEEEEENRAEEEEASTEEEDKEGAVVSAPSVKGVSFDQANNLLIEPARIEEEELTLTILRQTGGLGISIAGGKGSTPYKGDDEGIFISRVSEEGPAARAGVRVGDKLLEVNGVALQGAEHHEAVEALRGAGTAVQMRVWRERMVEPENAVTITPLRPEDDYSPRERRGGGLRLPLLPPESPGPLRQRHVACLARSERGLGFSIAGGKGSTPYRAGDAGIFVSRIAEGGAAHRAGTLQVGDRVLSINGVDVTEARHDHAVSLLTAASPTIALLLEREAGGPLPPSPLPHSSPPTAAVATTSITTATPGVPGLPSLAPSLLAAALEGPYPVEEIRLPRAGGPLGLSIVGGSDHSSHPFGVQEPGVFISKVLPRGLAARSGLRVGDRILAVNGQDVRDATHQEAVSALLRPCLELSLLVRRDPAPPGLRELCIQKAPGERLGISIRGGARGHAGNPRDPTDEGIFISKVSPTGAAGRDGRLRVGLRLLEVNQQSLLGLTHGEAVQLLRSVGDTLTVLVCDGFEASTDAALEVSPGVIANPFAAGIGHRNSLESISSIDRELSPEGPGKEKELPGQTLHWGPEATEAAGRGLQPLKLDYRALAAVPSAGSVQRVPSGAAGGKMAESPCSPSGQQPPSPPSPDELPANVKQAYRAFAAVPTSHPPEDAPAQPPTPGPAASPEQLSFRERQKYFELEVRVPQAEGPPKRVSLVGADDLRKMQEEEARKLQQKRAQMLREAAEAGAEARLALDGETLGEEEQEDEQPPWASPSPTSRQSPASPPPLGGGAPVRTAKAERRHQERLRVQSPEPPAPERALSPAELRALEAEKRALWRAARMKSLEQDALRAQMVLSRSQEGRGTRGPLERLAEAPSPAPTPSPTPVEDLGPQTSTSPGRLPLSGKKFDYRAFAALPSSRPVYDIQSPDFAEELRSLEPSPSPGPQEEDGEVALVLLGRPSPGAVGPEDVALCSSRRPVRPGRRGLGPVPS
UniProt Q14202: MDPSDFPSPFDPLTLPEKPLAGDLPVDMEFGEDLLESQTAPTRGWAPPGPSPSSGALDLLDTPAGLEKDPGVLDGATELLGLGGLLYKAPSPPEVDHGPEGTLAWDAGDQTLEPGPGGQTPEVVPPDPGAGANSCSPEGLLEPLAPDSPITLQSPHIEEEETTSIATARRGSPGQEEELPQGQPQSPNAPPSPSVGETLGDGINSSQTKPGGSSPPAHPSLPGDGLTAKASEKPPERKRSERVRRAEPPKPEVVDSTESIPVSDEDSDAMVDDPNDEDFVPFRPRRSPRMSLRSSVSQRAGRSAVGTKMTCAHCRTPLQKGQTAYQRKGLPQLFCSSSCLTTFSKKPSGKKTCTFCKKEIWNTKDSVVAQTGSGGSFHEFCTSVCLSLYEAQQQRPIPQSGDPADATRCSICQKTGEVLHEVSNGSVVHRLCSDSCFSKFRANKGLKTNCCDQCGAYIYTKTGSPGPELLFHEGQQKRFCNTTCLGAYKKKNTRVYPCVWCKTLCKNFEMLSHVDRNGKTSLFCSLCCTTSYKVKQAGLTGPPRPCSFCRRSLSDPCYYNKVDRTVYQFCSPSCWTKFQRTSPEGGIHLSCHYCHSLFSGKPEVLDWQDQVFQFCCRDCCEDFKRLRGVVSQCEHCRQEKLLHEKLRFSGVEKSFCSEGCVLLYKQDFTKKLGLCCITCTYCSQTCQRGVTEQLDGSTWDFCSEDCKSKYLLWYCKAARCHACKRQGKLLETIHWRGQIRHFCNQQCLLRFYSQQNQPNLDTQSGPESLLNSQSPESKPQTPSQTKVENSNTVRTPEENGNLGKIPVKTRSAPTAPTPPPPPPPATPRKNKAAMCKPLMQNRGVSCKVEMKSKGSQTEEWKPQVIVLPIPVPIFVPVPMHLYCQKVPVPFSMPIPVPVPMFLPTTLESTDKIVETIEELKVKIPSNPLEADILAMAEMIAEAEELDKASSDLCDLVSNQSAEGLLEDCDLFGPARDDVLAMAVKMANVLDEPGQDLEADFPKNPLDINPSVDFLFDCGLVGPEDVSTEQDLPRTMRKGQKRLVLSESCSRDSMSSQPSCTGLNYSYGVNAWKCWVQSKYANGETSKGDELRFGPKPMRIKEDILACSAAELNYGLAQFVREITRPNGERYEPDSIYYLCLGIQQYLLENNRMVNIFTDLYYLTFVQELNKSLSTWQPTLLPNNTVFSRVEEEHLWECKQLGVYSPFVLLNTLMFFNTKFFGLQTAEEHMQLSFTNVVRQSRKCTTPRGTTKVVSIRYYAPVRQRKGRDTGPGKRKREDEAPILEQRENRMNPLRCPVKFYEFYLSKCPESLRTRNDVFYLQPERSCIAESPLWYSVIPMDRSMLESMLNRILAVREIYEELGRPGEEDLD

log2 ratio of iodoacetamide-alkyne labeling, inactive:
GAPVD1 C1160 (UniProt Q14C86) 0.00707
DYNC1H1 C1977 (UniProt Q14204) 0.124
SART3 C537 (UniProt Q15020) 0.142
PDCD11 C361 (UniProt Q14690) 0.384
NUMA1 C375 (UniProt Q14980) -0.109
RASA3 C58 (UniProt Q14644) 0.224
UniProt Q13620_C102 0.0449
MDC1 C1742 (UniProt Q14676) 0.0644
UniProt Q15004_C54 0.299
PPP2R5D C17 (UniProt Q14738) 0.818
DYNC1H1 C4644 (UniProt Q14204) 0.211
GAPVD1 C568 (UniProt Q14C86) 0.475
SCRIB C1082 (UniProt Q14160) 0.0156
ZMYM3 C557 (UniProt Q14202) 0.228
SMC1A C987 (UniProt Q14683) 0.473
MORC3 C632 (UniProt Q14149) 0.732

For reference, some entries already given.
log2 ratio of iodoacetamide-alkyne labeling, inactive:
GAPVD1 C568 (UniProt Q14C86) 0.475
SCRIB C1082 (UniProt Q14160) 0.0156
ZMYM3 C557 (UniProt Q14202) 0.228
SMC1A C987 (UniProt Q14683) 0.473
